The list shows a part of the results, in another mix than the full data. At the low end of the ranking the order means little.

The assay concerns the target T1, ELF3 (UniProt P78545).
T1 sequence: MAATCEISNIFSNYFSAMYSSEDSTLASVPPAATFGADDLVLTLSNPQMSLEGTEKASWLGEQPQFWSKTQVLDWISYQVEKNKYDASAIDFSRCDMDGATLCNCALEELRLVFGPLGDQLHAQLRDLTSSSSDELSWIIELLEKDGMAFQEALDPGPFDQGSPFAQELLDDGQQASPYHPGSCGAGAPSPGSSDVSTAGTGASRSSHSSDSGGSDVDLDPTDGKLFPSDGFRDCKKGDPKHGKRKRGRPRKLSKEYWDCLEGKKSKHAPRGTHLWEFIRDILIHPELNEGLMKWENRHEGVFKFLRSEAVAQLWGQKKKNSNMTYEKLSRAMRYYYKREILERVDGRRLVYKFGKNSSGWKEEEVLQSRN
In words: DAPPL (digital affinity profiling via proximity ligation, sequencing). Conditions: 10 mM Tris-HCl pH 7.5, 50 mM NaCl, 1 mM DTT, 4% glycerol, room temperature, 30 min; GST-TFs on glutathione beads, 16-mer random dsDNA library, 0.1% …; high values mean tight binding; double strand, one strand shown; scale: fold enrichment (6-mer frequency, TF over GST control).
On to TGTGAC, for which the binding signal is 1.16.
With CTCGTG the figure was 0.988.
The figure for ATATCG is 1.02.
With CCGCGT, the binding signal turned out to be 1.16.
The sequence TACCGA displayed a binding signal of 1.3.
The figure for CGTTCA is 1.13; for CATTTC it is 1.61; for TTAGCG it is 0.937.
With GTCACA, the binding signal stood at 1.08.
With TAAACG the figure was 1.07; with CTCCTA, 1.31.
With TTCTTC the figure was 1.74; with TATCCG, 2.33; with TATTCA, 1.31.
Take CTGTTT: the binding signal was determined as 1.14.
Regarding TCTGTC, the binding signal turned out to be 1.19.
Sequence AACTTA yielded a binding signal of 1.12.
The figure for CATCTA is 1.33; for GTACAT it is 1.28; for GTATTT it is 1.39.
The figure for ATGGTA is 1.48; for CGTATG it is 0.952.
With AAAAGT the figure was 1.12; with CTTGTT, 0.972; with GGTTTC, 1.31.
On to CAAATA, for which the binding signal worked out at 1.4.
As for CCAAAA, the binding signal is 1.03.
With AGAAGC the figure was 1.09; with TTGCCG, 1.09; with ACCGGA, 3.15.
In turn, GCGATG gave a binding signal of 1.26.
The figure for TCTAAT is 1.16.
The figure for ACTGCT is 1.32; for ATTCCC it is 1.35; for CTGATC it is 1.25.
The figure for TTGATG is 1.81; for TGCGAT it is 1.03; for ATTGCT it is 1.28.
In turn, CTAATC displayed a binding signal of 1.56.
